Values quoted from earlier work, collected in patent CN103330941A, “一种紫杉醇注射剂的药物组合物” (Individual, priority 2013, dated 2013).
≈ marks a conversion by molar mass, not a printed value.

Details: cited from earlier work

Which solubility in water does the source give for CC(=O)O[C@H]1C(=O)[C@@]2(C)[C@H]([C@H](OC(=O)c3ccccc3)[C@]3(O)C[C@H](OC(=O)[C@H](O)[C@@H](NC(=O)c4ccccc4)c4ccccc4)C(C)=C1C3(C)C)[C@]1(OC(C)=O)CO[C@@H]1C[C@@H]2O [紫杉醇, 5β,20-环氧-1,2α,4,7β,10β,13α-六羟基紫杉烷-11-烯-9-酮-4,10-二乙酸酯-2-苯甲酸酯-13[(2’R,3’S)-N-苯甲酰-3-苯基异丝氨酸酯]] here?
The solubility in water was 6 µg/mL (≈ 7.03 µM).
